In all, about 31,000 sequences went through this assay and about 1,400 (4.5%) were called active.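 The calls were made as follows: active = median seed-adjusted z-score above 1 or below -1; inactive = the rest.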 Some of the results follow.

This test in a line: Novel Modifiers of Survival Motor Neuron (SMN) Protein: Gene Identification via Genome-wide siRNA Screen.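 Also: luminescence tracks full-length SMN protein made from the SMN2 reporter.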 The conditions noted are these: HEK293T SMN2-luciferase reporter, siRNA knockdown, 72 h; actives lie on both sides. The method, boiled down: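 Luciferase signal, proportional to full-length SMN made from an SMN2 cDNA reporter in stable HEK293T cells, was read 72 h after siRNA reverse transfection. Values were expressed as MAD scores after non-targeting-control normalization and log10 conversion; seed analysis flagged off-targets.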
For GGAGGCUCGUUUUCCCGUATT against EGR4, the median seed-adjusted z-score was inactive: 0.
Then CAUAUUAGAUGAACUGGUATT against RAD18, with inactive: 0.562; and GGACCGACCUAGAUUUGAATT against PRKAR1A, with inactive: 0.428; and GCCUGAAAGUGCAAGGUAUTT against SVOP, with inactive: 0.
Then GCUUUGACCUUCUUAGCAATT against SMARCAL1, with inactive: -0.145; and GACAUAUCUGUGAUGCUAATT against IL7, with inactive: 0.253.
Turning to GCAUUUACAAUGAGGUAAATT against SNUPN, the median seed-adjusted z-score is inactive: -0.199.
In the case of GAAUAUCGGUUGGAUUAUATT against ITGAV it was active: 1.17; in that of CACUUGUGAAGUAACAGAATT against CD47, inactive: 0.0241.
Take GCACCGAGUCGGAGAUGAATT against MGAT5B: the median seed-adjusted z-score is inactive: 0.
As to GGAAAGCACAUUCCGUUUATT against ORC4L, the median seed-adjusted z-score is inactive: -0.286.
Then GUAUGUUAAGUGCUAUUCATT against UCHL5, with inactive: -0.358; and GGUGCAAUGAGCUACGUUATT against MCF2, with inactive: 0.51; and CCAUAGGCGUGAGAGUUUATT against ZNF219, with inactive: 0.127.
Take CCCAAACCCUUAACCAUGATT against TOX3: the median seed-adjusted z-score is inactive: -0.216.
As for GGAUGAUUACCUAUUCAUUTT against LRRC55, the median seed-adjusted z-score is inactive: 0.314.
With GGUUUUCAUAUCUUACUAATT against ZNF695, the median seed-adjusted z-score is inactive: -0.358.
Take GAACGUGAAGAAGUAAGUUTT against EIF3A: the median seed-adjusted z-score was inactive: -0.689.
Then CAAGUUCCCUUACCCAACATT against ZHX1, with inactive: -0.566; and GGACCAUUGGUGAUGAGAATT against CD36, with inactive: -0.000845; and CAUCCAGUCUGUAUACGAATT against ACLY, with inactive: 0.478.
Consider GGUCUGUCAUGCUAAUCCATT against COPB1, for which the median seed-adjusted z-score is inactive: -0.839.
Then GGAGACUAGUGGUGGGAUATT against CCL16, with inactive: -0.308.
As for GGACCACUAUUUACAGCAATT against FUCA2, the median seed-adjusted z-score was inactive: 0.562.
Then GGUUGUGACUGGAUCUAAUTT against NFATC3, with inactive: -0.517; and GCUGUGAAAUUGUUUCGAATT against IREB2, with inactive: 0.
In the case of ACACCCGUGUCUCAAGAUATT against KLK13 it was inactive: 0.452; in that of GGAUACGGAUGAUUGAGAATT against ARHGAP26, inactive: 0.34.
Then GGACAAUGCCUACAUGAUATT against KRT2, with inactive: -0.451.
In the case of GAAGUAUGCUGAGAAAGCATT against ARSG, the median seed-adjusted z-score is inactive: -0.133.
AGUCUGUCCUCCUAAGAAATT against SLPI: the median seed-adjusted z-score is inactive: 0.274.
Take GGAACGGGAUUGGUUCACATT against IARS2: the median seed-adjusted z-score was inactive: -0.404.
Then GCAUUUGCCUAAUCCUCAUTT against ZNF18, with inactive: -0.27.
As to GCCCUAAAGGAGAAAGUCATT against MAT2A, the median seed-adjusted z-score was active: -1.9.
In the case of GCCGUUUAGGGAAAUCUUATT against P2RY14 it was inactive: -0.0536; in that of CGAUUAAUCUUUCAUCGUUTT against NPHP3, inactive: 0.239; in that of CGGUCCAUGCAGUUGUAUATT against SEC61A1, inactive: 0.312.
CAACCGCGCUCUCAAGAGATT against RGS8: the median seed-adjusted z-score was inactive: 0.739.
Then GAAAAGUACUUCCUACUGUTT against LPAR2, with inactive: 0.171; and CAGUUUGUUGAAUAUGAUATT against RCN2, with inactive: -0.112; and GGAAGACGAUAACAGGAUCTT against SF1, with inactive: 0.795.
In the case of GCAAUGGACGCAUCAAACATT against PTPRS it was inactive: -0.433; in that of AGAUGACGGUGGAUCACUUTT against HEYL, inactive: 0.48.
As for CUACGGAUGUGAAUCAAGATT against TAC3, the median seed-adjusted z-score is inactive: -0.00265.
On to GGCCUUACUUAUUUGUGGATT against MAP2K5, for which the median seed-adjusted z-score is inactive: 0.986.
In the case of AGAAUGUCUUGAUUGUGGATT against HPRT1 it was inactive: -0.0463.
For GAAUGGUUAUAAAAGUGAUTT against HNRNPA1, the median seed-adjusted z-score is inactive: 0.563.
Then CAAGACCGAGAGAACAAUATT against ENOX1, with inactive: 0.0694.
For the sequence GCAAGCUCAUGAAACAUGATT against MAPK12, the median seed-adjusted z-score is inactive: 0.0649.
Turning to GCACAAUUGAAAACUUCAATT against CYSLTR2, the median seed-adjusted z-score was inactive: 0.0461.
In the case of GGACUGCAGUGCAACGCAUTT against CRHR1, the median seed-adjusted z-score was inactive: -0.67.
Then GCCUUACAACUCUAAUGAATT against ZNF519, with inactive: 0.0162; and AGCAUGUAAUCAGCCCAAATT against GMEB2, with inactive: -0.669.
As to GUAUGAGAAUGACACGUCATT against ZNF69, the median seed-adjusted z-score was inactive: 0.
Then GAGUGACAGUUCAGCUGGATT against TBX10, with inactive: 0.175.
For the sequence CAACAUCUGCUGUAAGAAATT against INHBA, the median seed-adjusted z-score was inactive: 0.361.
In the case of GAACUUGACCCAUACCUAUTT against SLC4A9 it was inactive: 0; in that of CAAUAGUAUCAUAACUAGATT against BCHE, inactive: 0.117.
Then CGCUGAGCUCAACACCAUATT against SLC12A3, with inactive: -0.891; and GAGGAGUGCUGUUUCCGCATT against IGF2, with inactive: -0.0306; and CACCCAGCCUGGUACUGAATT against COMT, with inactive: -0.0808.
In the case of CGCUCAGCCUUUUACUGGATT against LGI1 it was inactive: -0.19.
On to CACGAGUGAUAAACAUAUUTT against SLC3A1, for which the median seed-adjusted z-score is inactive: -0.33.
As to CCUAAAUGAUCGCAAAGUATT against PABPC1, the median seed-adjusted z-score was inactive: -0.126.
Then CCUUAUCCGCUACCUCCAATT against TAF5L, with inactive: 0.409.
As to CUAAGGGACUCAGCACUAATT against PCSK1, the median seed-adjusted z-score is inactive: 0.154.
Then GGUAUCACACUUUAACCAATT against BAG5, with inactive: -0.0153; and GAGUAGCACUUGUUAACGATT against ZC3HAV1, with inactive: 0.522.
With GGAGGUUUUAAUUUCCGAATT against LAMA4, the median seed-adjusted z-score was inactive: 0.691.
In the case of GGGAAUUUGUCUACCAGGATT against ZSCAN18 it was inactive: 0.125; in that of CACUAAUGGAUAUUGCCUATT against BMI1, inactive: 0.
As for GAGAGAACAUAGACGAGGATT against RYR1, the median seed-adjusted z-score was inactive: -0.474.
For CUAUGUUUGUGGAGACUCATT against STX2, the median seed-adjusted z-score was inactive: 0.442.
In the case of UGUCUGUACUGAUCCUCAATT against HMGN1, the median seed-adjusted z-score was inactive: -0.183.
As for ACACCCAGCUGACAUCCGATT against CACNG5, the median seed-adjusted z-score is inactive: -0.41.
On to GAGUUGCACAAGAUAGUUUTT against TCERG1, for which the median seed-adjusted z-score is inactive: 0.415.
For GCGAUAUCCUGGAUGAGAATT against ELF4, the median seed-adjusted z-score is inactive: -0.0311.
Then CAAAGACUAUUUCCUAGAATT against GNA13, with inactive: 0; and GCAUUGCUCAAGAUUCUCATT against SPOCK3, with inactive: 0.329.
Take GAAACGAUGUGAGUAUGCATT against MED13: the median seed-adjusted z-score was inactive: -0.469.
As for GAAUCCUCAAUGUGGAUGATT against HPCA, the median seed-adjusted z-score is inactive: 0.12.
In the case of GGUUCAUCUGGGAAUAUGATT against RERG it was inactive: 0.59; in that of GGUAGAUCUCUACAACCCATT against AKAP4, inactive: 0.116.
Take GGAGCACUCGACUACUAUATT against RBM4B: the median seed-adjusted z-score is inactive: -0.251.
CCCGUAAUGUCUUAGUGAATT against ERBB4: the median seed-adjusted z-score is inactive: 0.166.
Then GAGCGUGGACGGACGAAAATT against RBP5, with inactive: -0.748; and GGCGAGCACUAUGAAGUCATT against DPP9, with inactive: -0.224.
Then GAAGACUCAUCAUUACUUATT against TAF11, with inactive: -0.848.
Take CCGUCUGGGCUUUACUAUATT against CNTNAP3: the median seed-adjusted z-score was inactive: 0.15.
Then GCAUAUGCUUUGGAUUAUUTT against PANK2, with inactive: 0.121.
In the case of GGCUCUUCGACAGCUCGUATT against PPT2 it was inactive: 0.0334; in that of CGAAUGCAAUGUUUGUGGATT against ZNF146, inactive: 0.23; in that of CAAUGGGUCUGUCUACUUUTT against CARS, inactive: 0.
Then GGACAAGAGGAAACCCACATT against UQCR, with inactive: 0.193.
GCUGGGAGGUGUUUGCAAATT against NDUFA11: the median seed-adjusted z-score is inactive: -0.722.
Then AGGUAGAAUGGACAAGUGATT against PPP1R11, with inactive: -0.498; and CAUCAAUGAGGUAUACUAUTT against DYRK1B, with inactive: 0.29; and CGUACGGAGAGGUGAGAAATT against GALNT9, with inactive: 0.787.
In the case of GCCUUUCGAUUCAUCUACATT against GPR34, the median seed-adjusted z-score was inactive: 0.529.
Then ACUGUGCCGUUUCCACCAATT against CCR9, with inactive: 0.16; and CCUGAACACACCUUACAUATT against RNASE8, with inactive: 0.00771; and GGGAAGGCGUCAUGAAACATT against DHDH, with inactive: 0.522.
For the sequence CCACGGUUGCUCCAAUGUATT against SVIL, the median seed-adjusted z-score is inactive: 0.0852.
In the case of CCAGUGAACUUCUUGGAGATT against SOX6 it was inactive: 0.0135.
In the case of CAGGUGACAUGGUAAGGAUTT against DZIP3, the median seed-adjusted z-score is inactive: 0.435.
On to AUUCAGCCCUGUUAGUUCATT against ZNF701, for which the median seed-adjusted z-score was inactive: -0.0161.
In the case of GUACGGAACCUGACCGAUUTT against ATE1 it was inactive: 0.569; in that of GAGAGACAUUUCAAUAAGATT against USP5, inactive: 0.596.

These data come from PubChem BioAssay AID1347426 (Functional Genomics Laboratory (NCATS/FGL), 2020).
